Experimental data: paper PMC11708023
Results are given in words; binding and its absence hold for the method and conditions named. In cells and extracts the contact can be indirect. These calls come from enrichment with a bait or labelling near it, and not all partners need be listed.

Amino acid sequences for entries named in this document (tags omitted). A change or cut given only in a name is not applied to a line headed by its entry.
UniProt P68831: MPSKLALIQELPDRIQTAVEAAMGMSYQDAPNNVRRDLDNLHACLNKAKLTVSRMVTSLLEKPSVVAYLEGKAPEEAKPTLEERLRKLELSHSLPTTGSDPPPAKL
UniProt Q9VCU9: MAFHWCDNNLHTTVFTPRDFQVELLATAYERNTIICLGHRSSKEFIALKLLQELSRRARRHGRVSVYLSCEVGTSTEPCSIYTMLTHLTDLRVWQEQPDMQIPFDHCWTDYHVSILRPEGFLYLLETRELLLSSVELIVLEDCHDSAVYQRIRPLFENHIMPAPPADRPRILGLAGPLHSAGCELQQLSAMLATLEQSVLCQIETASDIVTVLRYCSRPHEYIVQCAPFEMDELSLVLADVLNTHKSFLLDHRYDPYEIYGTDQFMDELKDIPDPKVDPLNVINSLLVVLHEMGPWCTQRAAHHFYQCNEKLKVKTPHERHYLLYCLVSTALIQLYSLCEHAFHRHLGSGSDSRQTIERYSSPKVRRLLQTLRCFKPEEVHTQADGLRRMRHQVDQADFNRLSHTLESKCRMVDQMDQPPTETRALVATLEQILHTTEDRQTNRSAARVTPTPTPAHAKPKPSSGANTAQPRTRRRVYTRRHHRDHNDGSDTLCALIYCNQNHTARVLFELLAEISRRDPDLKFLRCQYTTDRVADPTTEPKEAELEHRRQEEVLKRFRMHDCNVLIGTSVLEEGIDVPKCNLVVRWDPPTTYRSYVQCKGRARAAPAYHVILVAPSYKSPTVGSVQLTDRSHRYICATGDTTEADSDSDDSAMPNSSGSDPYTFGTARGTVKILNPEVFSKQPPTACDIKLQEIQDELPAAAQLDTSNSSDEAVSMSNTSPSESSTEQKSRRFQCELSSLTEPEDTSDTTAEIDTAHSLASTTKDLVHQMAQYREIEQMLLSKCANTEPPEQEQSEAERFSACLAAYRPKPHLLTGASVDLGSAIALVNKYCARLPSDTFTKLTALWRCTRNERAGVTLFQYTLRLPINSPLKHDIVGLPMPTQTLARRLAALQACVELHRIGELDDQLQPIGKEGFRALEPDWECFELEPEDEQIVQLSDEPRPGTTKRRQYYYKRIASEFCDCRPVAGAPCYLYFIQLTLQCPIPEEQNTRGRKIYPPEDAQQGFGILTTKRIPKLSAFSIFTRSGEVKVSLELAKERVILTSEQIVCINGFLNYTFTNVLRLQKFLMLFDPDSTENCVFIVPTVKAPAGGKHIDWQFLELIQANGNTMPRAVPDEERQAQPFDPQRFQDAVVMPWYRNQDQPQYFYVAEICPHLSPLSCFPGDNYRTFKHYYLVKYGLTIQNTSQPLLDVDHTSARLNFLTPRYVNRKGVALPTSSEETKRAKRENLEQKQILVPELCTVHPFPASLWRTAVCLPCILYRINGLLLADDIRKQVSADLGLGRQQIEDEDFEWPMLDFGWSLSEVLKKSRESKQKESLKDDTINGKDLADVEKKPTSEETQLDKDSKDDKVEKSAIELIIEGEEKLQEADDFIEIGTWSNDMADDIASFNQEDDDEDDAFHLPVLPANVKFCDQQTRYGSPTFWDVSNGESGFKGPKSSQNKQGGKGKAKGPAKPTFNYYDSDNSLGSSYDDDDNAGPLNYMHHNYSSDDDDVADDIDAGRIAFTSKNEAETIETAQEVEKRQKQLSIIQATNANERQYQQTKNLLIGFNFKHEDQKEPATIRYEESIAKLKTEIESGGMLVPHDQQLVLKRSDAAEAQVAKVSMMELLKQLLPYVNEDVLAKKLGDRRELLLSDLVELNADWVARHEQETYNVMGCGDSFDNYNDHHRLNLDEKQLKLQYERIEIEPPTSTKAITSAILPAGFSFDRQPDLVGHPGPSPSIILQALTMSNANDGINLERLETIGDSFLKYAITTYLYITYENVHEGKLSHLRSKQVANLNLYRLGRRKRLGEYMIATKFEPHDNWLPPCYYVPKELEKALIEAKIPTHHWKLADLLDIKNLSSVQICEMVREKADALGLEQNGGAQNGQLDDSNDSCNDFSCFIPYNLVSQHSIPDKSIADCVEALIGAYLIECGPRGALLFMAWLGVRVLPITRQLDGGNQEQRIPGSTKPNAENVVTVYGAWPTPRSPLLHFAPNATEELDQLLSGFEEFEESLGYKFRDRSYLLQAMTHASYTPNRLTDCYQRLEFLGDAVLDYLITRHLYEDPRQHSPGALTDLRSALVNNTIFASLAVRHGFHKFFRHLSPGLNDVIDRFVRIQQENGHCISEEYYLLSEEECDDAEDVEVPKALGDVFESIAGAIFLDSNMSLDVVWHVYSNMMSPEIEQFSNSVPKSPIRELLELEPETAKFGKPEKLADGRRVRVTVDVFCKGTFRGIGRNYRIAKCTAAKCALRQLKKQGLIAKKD
UniProt A1Z9K0: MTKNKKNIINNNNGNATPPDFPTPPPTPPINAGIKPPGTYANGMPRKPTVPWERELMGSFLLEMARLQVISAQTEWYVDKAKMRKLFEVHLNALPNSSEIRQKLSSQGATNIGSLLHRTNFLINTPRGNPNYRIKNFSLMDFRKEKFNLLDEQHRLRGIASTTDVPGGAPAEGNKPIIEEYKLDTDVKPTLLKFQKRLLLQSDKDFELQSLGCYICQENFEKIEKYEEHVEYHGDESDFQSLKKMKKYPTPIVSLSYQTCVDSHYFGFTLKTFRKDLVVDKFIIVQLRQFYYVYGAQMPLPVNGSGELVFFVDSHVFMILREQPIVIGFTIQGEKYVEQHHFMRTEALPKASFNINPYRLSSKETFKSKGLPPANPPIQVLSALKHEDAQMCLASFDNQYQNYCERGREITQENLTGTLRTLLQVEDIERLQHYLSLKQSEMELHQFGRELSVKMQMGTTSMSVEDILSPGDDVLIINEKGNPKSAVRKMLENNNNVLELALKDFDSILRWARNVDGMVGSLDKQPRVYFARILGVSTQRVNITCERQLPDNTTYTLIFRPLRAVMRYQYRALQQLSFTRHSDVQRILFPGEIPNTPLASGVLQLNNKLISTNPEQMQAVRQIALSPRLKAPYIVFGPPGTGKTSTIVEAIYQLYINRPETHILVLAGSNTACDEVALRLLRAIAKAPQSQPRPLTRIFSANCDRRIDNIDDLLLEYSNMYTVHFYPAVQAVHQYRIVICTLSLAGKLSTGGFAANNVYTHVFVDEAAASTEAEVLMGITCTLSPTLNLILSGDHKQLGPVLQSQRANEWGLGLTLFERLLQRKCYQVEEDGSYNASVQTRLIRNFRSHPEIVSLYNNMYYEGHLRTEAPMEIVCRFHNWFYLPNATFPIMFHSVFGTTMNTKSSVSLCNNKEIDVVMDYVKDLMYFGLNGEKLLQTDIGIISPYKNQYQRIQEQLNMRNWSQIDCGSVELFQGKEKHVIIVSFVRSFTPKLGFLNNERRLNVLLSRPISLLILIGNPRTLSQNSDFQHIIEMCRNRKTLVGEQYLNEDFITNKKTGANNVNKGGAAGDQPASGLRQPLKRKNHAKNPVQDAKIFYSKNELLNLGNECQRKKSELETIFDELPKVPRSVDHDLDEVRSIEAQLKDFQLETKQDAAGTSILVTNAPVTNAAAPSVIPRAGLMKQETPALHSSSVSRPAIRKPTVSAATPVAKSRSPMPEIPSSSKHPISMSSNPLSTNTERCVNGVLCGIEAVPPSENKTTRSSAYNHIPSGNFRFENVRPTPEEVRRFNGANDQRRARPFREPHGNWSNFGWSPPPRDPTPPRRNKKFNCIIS
UniProt Q9VXN3: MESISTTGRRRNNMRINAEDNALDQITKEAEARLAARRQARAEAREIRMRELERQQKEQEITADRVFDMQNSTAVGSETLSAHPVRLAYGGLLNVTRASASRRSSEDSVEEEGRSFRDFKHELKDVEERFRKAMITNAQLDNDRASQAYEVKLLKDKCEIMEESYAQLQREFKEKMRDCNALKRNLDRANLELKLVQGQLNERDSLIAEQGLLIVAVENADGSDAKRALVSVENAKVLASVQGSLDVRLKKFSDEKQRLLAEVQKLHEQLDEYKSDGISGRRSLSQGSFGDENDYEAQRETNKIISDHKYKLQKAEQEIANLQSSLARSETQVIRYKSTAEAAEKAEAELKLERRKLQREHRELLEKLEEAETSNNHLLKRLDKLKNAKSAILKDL
UniProt P21187: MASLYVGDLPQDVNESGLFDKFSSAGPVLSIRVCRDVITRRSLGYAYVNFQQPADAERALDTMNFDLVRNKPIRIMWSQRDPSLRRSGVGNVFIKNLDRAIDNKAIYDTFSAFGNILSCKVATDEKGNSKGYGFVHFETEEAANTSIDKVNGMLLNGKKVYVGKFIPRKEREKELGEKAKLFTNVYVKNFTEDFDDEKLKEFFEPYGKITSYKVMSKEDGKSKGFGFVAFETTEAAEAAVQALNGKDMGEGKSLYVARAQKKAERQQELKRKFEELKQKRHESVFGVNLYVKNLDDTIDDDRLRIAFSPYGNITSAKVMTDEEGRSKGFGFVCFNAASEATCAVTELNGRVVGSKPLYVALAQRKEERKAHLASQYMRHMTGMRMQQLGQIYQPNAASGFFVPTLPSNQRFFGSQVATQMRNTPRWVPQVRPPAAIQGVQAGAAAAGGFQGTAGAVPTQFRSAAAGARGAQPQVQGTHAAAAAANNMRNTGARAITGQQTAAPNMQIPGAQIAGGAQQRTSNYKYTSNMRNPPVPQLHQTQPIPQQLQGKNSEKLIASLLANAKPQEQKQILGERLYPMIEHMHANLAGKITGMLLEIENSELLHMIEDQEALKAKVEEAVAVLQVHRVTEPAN
UniProt A1ZAW0: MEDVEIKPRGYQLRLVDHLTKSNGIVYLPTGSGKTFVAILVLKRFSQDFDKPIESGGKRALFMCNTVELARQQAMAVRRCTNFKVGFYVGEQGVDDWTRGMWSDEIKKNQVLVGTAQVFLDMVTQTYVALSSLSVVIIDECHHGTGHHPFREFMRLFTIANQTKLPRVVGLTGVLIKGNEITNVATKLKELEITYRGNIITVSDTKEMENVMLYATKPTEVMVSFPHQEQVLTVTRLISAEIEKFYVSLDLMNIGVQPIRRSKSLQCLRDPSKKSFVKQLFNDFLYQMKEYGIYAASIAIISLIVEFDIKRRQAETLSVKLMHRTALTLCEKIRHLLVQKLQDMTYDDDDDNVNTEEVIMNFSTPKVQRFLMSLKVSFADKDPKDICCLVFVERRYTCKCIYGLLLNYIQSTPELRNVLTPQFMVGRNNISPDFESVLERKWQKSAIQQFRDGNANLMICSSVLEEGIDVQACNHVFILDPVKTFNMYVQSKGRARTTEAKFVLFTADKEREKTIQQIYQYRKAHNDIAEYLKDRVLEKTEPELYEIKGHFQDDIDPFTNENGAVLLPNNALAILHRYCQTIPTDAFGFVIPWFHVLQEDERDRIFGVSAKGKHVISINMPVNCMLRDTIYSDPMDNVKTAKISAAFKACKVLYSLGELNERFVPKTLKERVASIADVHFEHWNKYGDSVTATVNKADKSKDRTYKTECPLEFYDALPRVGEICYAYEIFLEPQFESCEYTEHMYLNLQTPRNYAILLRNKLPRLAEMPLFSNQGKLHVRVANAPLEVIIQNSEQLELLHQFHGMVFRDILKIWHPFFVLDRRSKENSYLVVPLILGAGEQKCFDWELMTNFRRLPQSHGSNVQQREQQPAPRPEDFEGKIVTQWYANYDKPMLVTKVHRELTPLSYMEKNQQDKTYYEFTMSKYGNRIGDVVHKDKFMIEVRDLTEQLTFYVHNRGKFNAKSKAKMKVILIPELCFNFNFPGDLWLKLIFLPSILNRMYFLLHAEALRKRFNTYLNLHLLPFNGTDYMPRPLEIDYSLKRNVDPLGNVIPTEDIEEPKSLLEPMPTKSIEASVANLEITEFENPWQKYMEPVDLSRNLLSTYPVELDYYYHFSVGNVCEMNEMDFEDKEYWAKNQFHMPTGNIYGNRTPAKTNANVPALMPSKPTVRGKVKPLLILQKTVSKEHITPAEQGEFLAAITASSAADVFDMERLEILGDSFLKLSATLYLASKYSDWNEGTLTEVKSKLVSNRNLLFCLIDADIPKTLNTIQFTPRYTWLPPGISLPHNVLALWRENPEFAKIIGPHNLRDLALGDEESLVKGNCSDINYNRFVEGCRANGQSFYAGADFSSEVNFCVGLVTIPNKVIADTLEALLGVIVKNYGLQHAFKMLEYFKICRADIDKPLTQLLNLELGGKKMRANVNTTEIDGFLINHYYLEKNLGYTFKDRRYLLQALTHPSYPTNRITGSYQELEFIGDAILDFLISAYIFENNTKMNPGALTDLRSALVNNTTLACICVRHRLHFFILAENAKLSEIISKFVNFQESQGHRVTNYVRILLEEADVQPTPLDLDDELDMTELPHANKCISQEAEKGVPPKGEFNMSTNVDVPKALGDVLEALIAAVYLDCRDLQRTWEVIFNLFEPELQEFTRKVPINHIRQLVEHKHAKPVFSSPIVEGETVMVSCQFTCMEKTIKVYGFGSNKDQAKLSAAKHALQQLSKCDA

Target: V5-tagged B2 of Flock House virus (FHV) (Flock House virus) (UniProt P68831)
Assay: affinity purification with mass spectrometry; S2 cells transfected with V5-tagged B2 for 48 h; lysate in RIPA buffer immunoprecipitated with anti-V5 antibody on protein A agarose; on-bead trypsin digest, LC-MS/MS; control empty vector / anti-IgG

Substance | binding
Dcr-1 (from UniProt Q9VCU9 1-2249) (enzyme) | binds
CG6701 (from UniProt A1Z9K0) | binds
ALDH (from UniProt Q9VLC5) (enzyme) | binds
ENO (from UniProt P15007 1-500) (enzyme) | binds
CG8578 (from UniProt Q9VXN3) (enzyme) | binds
pAbp (from UniProt P21187 1-634) | binds
Dcr-2 (from UniProt A1ZAW0 1-1722) (enzyme) | binds
